These are yes or no findings as the source states them, for the method shown. In cells and extracts the contact can be indirect. Some results given as binding are weak or reduced against the parent protein; the word gives no strength.
Biological target: Smad3 (ectopically expressed) (UniProt P84022)
Experiment: co-IP; HEK293T cells transfected with Smad3 and wild-type or mutant 14-3-3σ constructs, with TGFβ1 treatment and co-transfected constitutively active TβR-I; co-precipitated 14-3-3σ detected by blot; protein A-Sepharose, 6 hours at 4°C

The chains behind the UniProt entries cited, without tags or fusion partners.
UniProt P84022: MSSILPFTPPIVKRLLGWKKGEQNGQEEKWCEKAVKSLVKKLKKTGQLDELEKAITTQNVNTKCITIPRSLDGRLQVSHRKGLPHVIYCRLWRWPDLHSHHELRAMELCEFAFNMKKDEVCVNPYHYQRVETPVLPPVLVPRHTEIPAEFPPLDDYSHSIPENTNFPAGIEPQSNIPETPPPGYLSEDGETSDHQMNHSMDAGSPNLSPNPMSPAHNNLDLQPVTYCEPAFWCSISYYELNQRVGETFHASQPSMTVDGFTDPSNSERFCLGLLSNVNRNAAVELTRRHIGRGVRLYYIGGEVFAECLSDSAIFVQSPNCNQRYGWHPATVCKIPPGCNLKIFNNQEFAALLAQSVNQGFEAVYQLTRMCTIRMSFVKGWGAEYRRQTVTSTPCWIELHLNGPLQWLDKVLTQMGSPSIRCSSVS

Row | Binder | binding
1 | 14-3-3σ Ser69Ala mutant (protein, UniProt P31947 1-248) MERASLIQKAKLAEQAERYEDMAAFMKGAVEKGEELSCEERNLLSVAYKNVVGGQRAAWRVLSSIEQKANEEGSEEKGPEVREYREKVETELQGVCDTVLGLLDSHLIKEAGDAESRVFYLKMKGDYYRYLAEVATGDDKKRIIDSARSAYQEAMDISKKEMPPTNPIRLGLALNFSVFHYEIANSPEEAISLAKTTFDEAMADLHTLSEDSYKDSTLIMQLLRDNLTLWTADNAGEEGGEAPQEPQS | binds
2 | 14-3-3σ Ser74Ala mutant (protein, UniProt P31947 1-248) MERASLIQKAKLAEQAERYEDMAAFMKGAVEKGEELSCEERNLLSVAYKNVVGGQRAAWRVLSSIEQKSNEEGAEEKGPEVREYREKVETELQGVCDTVLGLLDSHLIKEAGDAESRVFYLKMKGDYYRYLAEVATGDDKKRIIDSARSAYQEAMDISKKEMPPTNPIRLGLALNFSVFHYEIANSPEEAISLAKTTFDEAMADLHTLSEDSYKDSTLIMQLLRDNLTLWTADNAGEEGGEAPQEPQS | binds
3 | 14-3-3σ double Ser69/74Ala mutant (protein, UniProt P31947 1-248) MERASLIQKAKLAEQAERYEDMAAFMKGAVEKGEELSCEERNLLSVAYKNVVGGQRAAWRVLSSIEQKANEEGAEEKGPEVREYREKVETELQGVCDTVLGLLDSHLIKEAGDAESRVFYLKMKGDYYRYLAEVATGDDKKRIIDSARSAYQEAMDISKKEMPPTNPIRLGLALNFSVFHYEIANSPEEAISLAKTTFDEAMADLHTLSEDSYKDSTLIMQLLRDNLTLWTADNAGEEGGEAPQEPQS | no binding
